Where a name gives a salt, the structure may show the parent alone. Some of the results follow. The calls rarely recur for the same compound in another form.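 Kinases were expressed as nanoluciferase fusions in K562 cells and luminescence was read every 4 h between 2 and 18 h as percent of control, DMSO set to 100% and a positive control to 0%. A time point counts as decreased when the signal drops significantly (2 sigma). The hit call is the authors' own, does not follow from the count of time points alone, and its rule is not shown.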
How the values were obtained:
Assay in all cases: kinase-Nluc reporter destabilization hit call (1 = scored as downregulated) (binary); higher = compound decreases kinase abundance
Conditions in all cases: K562; 2-18 h
MAPK1 = MAPK1 (UniProt P28482)
MAPK4 = MAPK4 (UniProt P31152)
MAPKAPK2 = MAPKAPK2 (UniProt P49137)
MKNK1 = MKNK1 (UniProt Q9BUB5)
NTRK2 = NTRK2 (UniProt Q16620)
NTRK3 = NTRK3 (UniProt Q16288)
PAK4 = PAK4 (UniProt O96013)
PBK = PBK (UniProt Q96KB5)
PDGFRB = PDGFRB (UniProt P09619)
PDK1 = PDK1 (UniProt Q15118)

By UniProt entry, the sequences of proteins in these tests, tags left out. Where a name states a change or a piece, a line headed by the entry shows the natural chain unless it says otherwise.
UniProt P28482, whole entry: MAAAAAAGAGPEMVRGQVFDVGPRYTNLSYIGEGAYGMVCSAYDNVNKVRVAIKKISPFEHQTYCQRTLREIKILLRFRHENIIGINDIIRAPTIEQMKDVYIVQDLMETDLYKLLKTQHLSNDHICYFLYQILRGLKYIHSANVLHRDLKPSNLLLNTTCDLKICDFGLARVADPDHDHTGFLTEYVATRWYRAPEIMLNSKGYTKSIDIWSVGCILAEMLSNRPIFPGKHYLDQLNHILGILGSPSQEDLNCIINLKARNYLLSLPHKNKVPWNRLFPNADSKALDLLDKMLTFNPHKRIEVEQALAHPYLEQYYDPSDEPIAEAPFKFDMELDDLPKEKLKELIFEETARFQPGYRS
UniProt P31152, whole entry: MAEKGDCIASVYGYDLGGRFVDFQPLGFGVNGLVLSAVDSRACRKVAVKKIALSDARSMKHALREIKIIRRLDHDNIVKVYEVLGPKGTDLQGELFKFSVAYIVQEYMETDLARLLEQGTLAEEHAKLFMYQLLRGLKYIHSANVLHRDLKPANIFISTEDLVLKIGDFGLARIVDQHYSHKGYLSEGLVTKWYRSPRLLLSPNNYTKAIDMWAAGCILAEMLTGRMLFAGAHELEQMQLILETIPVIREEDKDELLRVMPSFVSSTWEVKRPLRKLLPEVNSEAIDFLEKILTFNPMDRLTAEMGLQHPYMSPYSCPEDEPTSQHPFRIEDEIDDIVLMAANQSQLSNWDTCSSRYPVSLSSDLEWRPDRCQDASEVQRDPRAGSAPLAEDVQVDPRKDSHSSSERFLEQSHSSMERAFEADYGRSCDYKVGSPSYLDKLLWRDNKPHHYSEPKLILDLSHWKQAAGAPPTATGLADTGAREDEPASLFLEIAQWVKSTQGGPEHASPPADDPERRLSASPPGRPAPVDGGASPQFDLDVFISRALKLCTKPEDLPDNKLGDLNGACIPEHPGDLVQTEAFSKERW
UniProt P49137, whole entry, looked up: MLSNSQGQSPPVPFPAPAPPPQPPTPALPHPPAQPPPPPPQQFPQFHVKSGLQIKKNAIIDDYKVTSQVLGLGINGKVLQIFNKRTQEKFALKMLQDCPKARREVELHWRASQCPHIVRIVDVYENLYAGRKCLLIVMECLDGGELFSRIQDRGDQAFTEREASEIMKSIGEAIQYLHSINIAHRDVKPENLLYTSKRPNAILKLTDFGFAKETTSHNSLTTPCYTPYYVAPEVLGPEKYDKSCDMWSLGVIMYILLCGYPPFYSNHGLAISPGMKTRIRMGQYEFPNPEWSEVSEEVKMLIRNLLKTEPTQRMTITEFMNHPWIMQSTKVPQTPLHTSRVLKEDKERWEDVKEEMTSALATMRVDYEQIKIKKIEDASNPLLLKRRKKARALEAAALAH
UniProt Q9BUB5: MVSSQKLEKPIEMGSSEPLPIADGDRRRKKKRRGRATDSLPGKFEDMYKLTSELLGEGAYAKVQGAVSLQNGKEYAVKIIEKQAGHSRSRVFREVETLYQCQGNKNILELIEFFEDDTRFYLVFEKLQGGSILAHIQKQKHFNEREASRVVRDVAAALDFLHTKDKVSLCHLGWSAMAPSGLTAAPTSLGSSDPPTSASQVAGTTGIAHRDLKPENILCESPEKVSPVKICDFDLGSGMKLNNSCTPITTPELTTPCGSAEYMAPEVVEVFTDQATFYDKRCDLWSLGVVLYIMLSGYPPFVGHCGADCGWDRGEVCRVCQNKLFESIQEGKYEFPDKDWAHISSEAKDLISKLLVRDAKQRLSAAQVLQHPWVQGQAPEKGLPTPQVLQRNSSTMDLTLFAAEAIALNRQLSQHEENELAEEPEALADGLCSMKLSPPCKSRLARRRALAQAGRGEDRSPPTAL
UniProt Q16620, whole entry, looked up: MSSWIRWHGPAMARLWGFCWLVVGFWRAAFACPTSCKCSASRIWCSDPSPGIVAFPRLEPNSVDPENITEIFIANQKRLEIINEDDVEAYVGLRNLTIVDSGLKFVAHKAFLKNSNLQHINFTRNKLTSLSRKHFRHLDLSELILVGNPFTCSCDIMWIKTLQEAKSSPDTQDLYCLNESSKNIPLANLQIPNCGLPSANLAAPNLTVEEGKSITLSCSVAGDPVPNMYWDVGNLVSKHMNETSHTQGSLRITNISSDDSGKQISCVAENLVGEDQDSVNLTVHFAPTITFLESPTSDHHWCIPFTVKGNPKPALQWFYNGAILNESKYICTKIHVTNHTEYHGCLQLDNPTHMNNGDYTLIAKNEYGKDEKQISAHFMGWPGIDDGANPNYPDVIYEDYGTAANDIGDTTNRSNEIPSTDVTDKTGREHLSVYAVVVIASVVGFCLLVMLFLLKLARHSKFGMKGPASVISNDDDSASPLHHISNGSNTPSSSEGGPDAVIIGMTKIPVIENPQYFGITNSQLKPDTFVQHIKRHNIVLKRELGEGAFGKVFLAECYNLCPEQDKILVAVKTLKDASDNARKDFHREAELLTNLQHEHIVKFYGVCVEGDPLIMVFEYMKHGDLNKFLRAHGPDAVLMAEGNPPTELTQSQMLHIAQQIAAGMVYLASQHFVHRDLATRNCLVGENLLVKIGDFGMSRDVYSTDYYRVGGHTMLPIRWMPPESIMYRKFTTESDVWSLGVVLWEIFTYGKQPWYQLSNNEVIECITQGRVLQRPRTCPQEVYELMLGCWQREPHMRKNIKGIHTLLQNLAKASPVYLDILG
UniProt Q16288, whole entry, looked up: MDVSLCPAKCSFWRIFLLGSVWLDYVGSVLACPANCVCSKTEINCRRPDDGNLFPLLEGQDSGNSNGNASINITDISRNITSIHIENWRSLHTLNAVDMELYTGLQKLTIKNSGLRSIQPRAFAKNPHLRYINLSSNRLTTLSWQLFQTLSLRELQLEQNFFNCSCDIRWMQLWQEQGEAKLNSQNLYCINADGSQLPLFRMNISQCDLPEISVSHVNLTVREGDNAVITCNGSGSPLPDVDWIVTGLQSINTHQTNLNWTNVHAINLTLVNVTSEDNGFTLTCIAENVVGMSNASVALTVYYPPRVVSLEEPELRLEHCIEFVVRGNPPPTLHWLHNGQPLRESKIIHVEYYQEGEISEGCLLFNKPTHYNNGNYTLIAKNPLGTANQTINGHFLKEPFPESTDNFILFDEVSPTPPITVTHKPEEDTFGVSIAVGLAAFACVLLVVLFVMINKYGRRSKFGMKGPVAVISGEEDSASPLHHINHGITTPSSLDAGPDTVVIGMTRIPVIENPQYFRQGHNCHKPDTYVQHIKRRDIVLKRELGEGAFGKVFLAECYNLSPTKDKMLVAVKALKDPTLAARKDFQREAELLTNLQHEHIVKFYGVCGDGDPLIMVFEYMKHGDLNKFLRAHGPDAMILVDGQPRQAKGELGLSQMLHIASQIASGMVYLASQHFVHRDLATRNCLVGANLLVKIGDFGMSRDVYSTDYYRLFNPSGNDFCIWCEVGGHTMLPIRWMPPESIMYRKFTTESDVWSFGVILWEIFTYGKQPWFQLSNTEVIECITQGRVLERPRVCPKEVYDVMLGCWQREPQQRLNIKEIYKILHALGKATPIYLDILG
UniProt O96013: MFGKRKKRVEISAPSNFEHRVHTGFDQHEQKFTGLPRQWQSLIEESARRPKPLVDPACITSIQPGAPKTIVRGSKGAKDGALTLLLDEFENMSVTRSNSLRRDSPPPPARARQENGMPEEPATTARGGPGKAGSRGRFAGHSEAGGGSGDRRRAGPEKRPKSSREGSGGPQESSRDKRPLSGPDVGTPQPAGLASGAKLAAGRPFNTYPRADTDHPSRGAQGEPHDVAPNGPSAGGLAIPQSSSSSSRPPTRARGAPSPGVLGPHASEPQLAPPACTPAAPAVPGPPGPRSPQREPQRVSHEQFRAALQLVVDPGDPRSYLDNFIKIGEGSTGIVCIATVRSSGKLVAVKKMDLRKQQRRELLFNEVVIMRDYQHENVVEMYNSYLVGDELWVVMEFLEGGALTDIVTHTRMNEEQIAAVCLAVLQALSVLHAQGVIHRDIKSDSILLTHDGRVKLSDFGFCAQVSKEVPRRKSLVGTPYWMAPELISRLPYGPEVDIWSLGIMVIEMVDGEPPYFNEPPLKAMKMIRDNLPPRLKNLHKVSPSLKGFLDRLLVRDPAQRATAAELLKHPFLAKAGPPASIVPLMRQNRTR
UniProt Q96KB5: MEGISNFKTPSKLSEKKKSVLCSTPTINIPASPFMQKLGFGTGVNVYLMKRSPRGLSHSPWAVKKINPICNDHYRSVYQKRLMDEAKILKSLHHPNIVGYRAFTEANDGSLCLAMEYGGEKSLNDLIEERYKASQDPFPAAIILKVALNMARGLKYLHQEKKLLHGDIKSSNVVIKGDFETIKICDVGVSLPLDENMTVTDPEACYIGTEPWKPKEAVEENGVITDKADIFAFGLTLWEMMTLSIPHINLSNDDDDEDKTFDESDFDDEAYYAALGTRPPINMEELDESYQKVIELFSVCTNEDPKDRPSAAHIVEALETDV
UniProt P09619, whole entry: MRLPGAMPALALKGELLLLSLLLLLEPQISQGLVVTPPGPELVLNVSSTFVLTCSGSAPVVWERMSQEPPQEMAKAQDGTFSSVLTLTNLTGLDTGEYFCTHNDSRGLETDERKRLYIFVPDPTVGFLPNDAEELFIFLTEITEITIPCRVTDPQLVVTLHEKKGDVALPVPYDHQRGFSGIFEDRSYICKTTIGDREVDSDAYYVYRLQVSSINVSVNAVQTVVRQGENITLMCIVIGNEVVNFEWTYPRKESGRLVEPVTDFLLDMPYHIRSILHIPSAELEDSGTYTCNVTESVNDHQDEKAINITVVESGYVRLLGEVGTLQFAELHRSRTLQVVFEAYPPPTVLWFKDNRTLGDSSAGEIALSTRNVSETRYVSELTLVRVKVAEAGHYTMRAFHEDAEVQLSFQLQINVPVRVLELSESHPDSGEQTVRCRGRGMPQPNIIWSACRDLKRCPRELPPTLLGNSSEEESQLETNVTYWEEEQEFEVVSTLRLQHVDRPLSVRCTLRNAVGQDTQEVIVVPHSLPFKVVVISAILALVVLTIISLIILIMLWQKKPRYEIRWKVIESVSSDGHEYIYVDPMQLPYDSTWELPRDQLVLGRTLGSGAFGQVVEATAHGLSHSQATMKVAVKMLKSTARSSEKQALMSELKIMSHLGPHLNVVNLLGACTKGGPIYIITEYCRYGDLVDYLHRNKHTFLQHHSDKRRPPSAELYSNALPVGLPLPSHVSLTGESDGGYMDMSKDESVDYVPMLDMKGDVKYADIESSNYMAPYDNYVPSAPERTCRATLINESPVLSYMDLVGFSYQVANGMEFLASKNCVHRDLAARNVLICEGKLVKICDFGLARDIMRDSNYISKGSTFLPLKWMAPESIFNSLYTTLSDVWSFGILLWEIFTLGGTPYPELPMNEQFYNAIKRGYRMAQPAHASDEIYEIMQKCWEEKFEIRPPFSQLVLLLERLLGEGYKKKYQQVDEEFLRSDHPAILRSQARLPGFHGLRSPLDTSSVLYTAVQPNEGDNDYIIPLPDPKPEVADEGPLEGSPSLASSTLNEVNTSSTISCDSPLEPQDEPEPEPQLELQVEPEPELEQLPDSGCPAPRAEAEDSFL
UniProt Q15118, whole entry, looked up: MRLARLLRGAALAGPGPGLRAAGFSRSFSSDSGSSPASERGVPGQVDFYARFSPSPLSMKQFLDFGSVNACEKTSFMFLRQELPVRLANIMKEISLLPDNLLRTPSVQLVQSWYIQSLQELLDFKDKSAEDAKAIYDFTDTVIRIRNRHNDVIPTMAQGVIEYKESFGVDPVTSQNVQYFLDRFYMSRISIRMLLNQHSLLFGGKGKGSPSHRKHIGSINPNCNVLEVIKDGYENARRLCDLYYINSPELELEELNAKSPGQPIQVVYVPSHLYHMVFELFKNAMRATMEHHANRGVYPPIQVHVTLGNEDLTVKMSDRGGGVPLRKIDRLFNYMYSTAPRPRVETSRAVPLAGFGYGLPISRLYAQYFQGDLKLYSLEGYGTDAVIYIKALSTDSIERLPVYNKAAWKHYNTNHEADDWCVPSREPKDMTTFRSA

Measured: kinase-Nluc reporter destabilization hit call

CC(C)S(=O)(=O)c1ccc2nccc(Nc3ccc4scnc4c3)c2c1 (10 µM)
inactive: MAPK1 = 0 | MAPK4 = 0 | MAPKAPK2 = 0 | MKNK1 = 0 | NTRK2 = 0 | NTRK3 = 0 | PAK4 = 0 | PBK 0 | PDGFRB 0 | PDK1 = 0

CN(c1ccc(NC(=O)Nc2ccc(OC(F)(F)F)cc2)cc1)c1ccnc(Nc2cccc(S(N)(=O)=O)c2)n1 (2.5 µM)
inactive: MAPK1 = 0 | MAPK4 = 0 | MAPKAPK2 = 0 | MKNK1 = 0 | NTRK2 = 0 | NTRK3 = 0 | PAK4 = 0 | PBK 0 | PDGFRB 0 | PDK1 = 0

Nc1n[nH]c2nc(-c3ccc(NS(=O)(=O)c4cc(Cl)ccc4F)cc3)cnc12 (10 µM)
inactive: MAPK1 = 0 | MAPK4 = 0 | MAPKAPK2 = 0 | MKNK1 = 0 | NTRK2 = 0 | NTRK3 = 0 | PAK4 = 0 | PBK 0 | PDGFRB 0 | PDK1 = 0

CC(C)=CCc1c(-c2ccc(O)cc2O)oc2c3c(cc(O)c2c1=O)OC(C)(C)C=C3 [Morusin] (2.5 µM)
inactive: MAPK1 = 0 | MAPK4 = 0 | MAPKAPK2 = 0 | MKNK1 = 0 | NTRK2 = 0 | NTRK3 = 0 | PAK4 = 0 | PBK 0 | PDGFRB 0 | PDK1 = 0

O=C(N[C@@H](C1CC1)C(F)(F)F)c1cc(-c2cnn3cc(-c4ccc(F)cc4)cnc23)cs1 (10 µM)
inactive: MAPK1 = 0 | MAPK4 = 0 | MAPKAPK2 = 0 | MKNK1 = 0 | NTRK2 = 0 | NTRK3 = 0 | PAK4 = 0 | PBK 0 | PDGFRB 0 | PDK1 = 0

O=C(Nc1nc(=O)n(Cc2ccc(Cl)cc2)s1)c1ccc(Cl)cc1 (10 µM)
inactive: MAPK1 = 0 | MAPK4 = 0 | MAPKAPK2 = 0 | MKNK1 = 0 | NTRK2 = 0 | NTRK3 = 0 | PAK4 = 0 | PBK 0 | PDGFRB 0 | PDK1 = 0

N#CC(c1ccnc(OCc2ccc(CN3CCOCC3)cc2)n1)c1nc2ccccc2s1 (stereo not given) [Bentamapimod] (2.5 µM)
inactive: MAPK1 = 0 | MAPK4 = 0 | MAPKAPK2 = 0 | MKNK1 = 0 | NTRK2 = 0 | NTRK3 = 0 | PAK4 = 0 | PBK 0 | PDGFRB 0 | PDK1 = 0

C#Cc1cccc(Nc2ncnc3cc(OC)c(OCCCCCCC(=O)NO)cc23)c1 (2.5 µM)
inactive: MAPK1 = 0 | MAPK4 = 0 | MAPKAPK2 = 0 | MKNK1 = 0 | NTRK2 = 0 | NTRK3 = 0 | PAK4 = 0 | PBK 0 | PDGFRB 0 | PDK1 = 0

Cc1ccc(C(=O)Nc2sc(Nc3ccccc3)nc2C(N)=O)cc1 (10 µM)
inactive: MAPK1 = 0 | MAPK4 = 0 | MAPKAPK2 = 0 | MKNK1 = 0 | NTRK2 = 0 | NTRK3 = 0 | PAK4 = 0 | PBK 0 | PDGFRB 0 | PDK1 = 0

C=CC(=O)N1C[C@H](COc2nc(Nc3cnn(C)c3)nc3[nH]cc(Cl)c23)[C@@H](OC)C1 (2.5 µM)
inactive: MAPK1 = 0 | MAPK4 = 0 | MAPKAPK2 = 0 | MKNK1 = 0 | NTRK2 = 0 | NTRK3 = 0 | PAK4 = 0 | PBK 0 | PDGFRB 0 | PDK1 = 0

O=C(O)c1cccc(CN2C(=O)/C(=C(\c3ccccc3)c3ccc(Cl)cc3)c3ccccc32)c1 (2.5 µM)
inactive: MAPK1 = 0 | MAPK4 = 0 | MAPKAPK2 = 0 | MKNK1 = 0 | NTRK2 = 0 | NTRK3 = 0 | PAK4 = 0 | PBK 0 | PDGFRB 0 | PDK1 = 0

O=C(Nc1cccc(Nc2ncc(Br)c(NCCc3cnc[nH]3)n2)c1)N1CCCC1 (10 µM)
inactive: MAPK1 = 0 | MAPK4 = 0 | MAPKAPK2 = 0 | MKNK1 = 0 | NTRK2 = 0 | NTRK3 = 0 | PAK4 = 0 | PBK 0 | PDGFRB 0 | PDK1 = 0

CCc1cccc(CC)c1NC(=O)N1Cc2[nH]nc(NC(=O)c3ccc(N4CCN(C)CC4)cc3)c2C1 (2.5 µM)
inactive: MAPK1 = 0 | MAPK4 = 0 | MAPKAPK2 = 0 | MKNK1 = 0 | NTRK2 = 0 | NTRK3 = 0 | PAK4 = 0 | PBK 0 | PDGFRB 0 | PDK1 = 0

CNC(=O)c1cc2c(Oc3ccc(NC(=S)NC(=O)Cc4ccccc4)cc3F)ccnc2cc1OC [TAS-115 mesylate] (10 µM)
inactive: MAPK1 = 0 | MAPK4 = 0 | MAPKAPK2 = 0 | MKNK1 = 0 | NTRK2 = 0 | NTRK3 = 0 | PAK4 = 0 | PBK 0 | PDGFRB 0 | PDK1 = 0

Ordered by count of non-hydrogen atoms (smallest number first): some entries from above.
O=C(Nc1cccc(Nc2ncc(Br)c(NCCc3cnc[nH]3)n2)c1)N1CCCC1 (10 µM)
inactive: MAPK1 = 0 | MAPK4 = 0 | MAPKAPK2 = 0 | MKNK1 = 0 | NTRK2 = 0 | NTRK3 = 0 | PAK4 = 0 | PBK 0 | PDGFRB 0 | PDK1 = 0

O=C(O)c1cccc(CN2C(=O)/C(=C(\c3ccccc3)c3ccc(Cl)cc3)c3ccccc32)c1 (2.5 µM)
inactive: MAPK1 = 0 | MAPK4 = 0 | MAPKAPK2 = 0 | MKNK1 = 0 | NTRK2 = 0 | NTRK3 = 0 | PAK4 = 0 | PBK 0 | PDGFRB 0 | PDK1 = 0

CCc1cccc(CC)c1NC(=O)N1Cc2[nH]nc(NC(=O)c3ccc(N4CCN(C)CC4)cc3)c2C1 (2.5 µM)
inactive: MAPK1 = 0 | MAPK4 = 0 | MAPKAPK2 = 0 | MKNK1 = 0 | NTRK2 = 0 | NTRK3 = 0 | PAK4 = 0 | PBK 0 | PDGFRB 0 | PDK1 = 0

Additional compounds:

CN1C(=O)[C@@H](NC(=O)c2n[nH]c(Cc3ccccc3)n2)COc2ccccc21 (10 µM)
inactive: MAPK1 = 0 | MAPK4 = 0 | MAPKAPK2 = 0 | MKNK1 = 0 | NTRK2 = 0 | NTRK3 = 0 | PAK4 = 0 | PBK 0 | PDGFRB 0 | PDK1 = 0

Cc1cc(Nc2nc(CC3(C(=O)O)CCN(C(=O)c4cccc(Cl)c4Cl)CC3)ccc2F)n[nH]1 (10 µM)
inactive: MAPK1 = 0 | MAPK4 = 0 | MAPKAPK2 = 0 | MKNK1 = 0 | NTRK2 = 0 | NTRK3 = 0 | PAK4 = 0 | PBK 0 | PDGFRB 0 | PDK1 = 0

COc1ccc(N=Nc2c(N)n[nH]c2N)cc1 (10 µM)
inactive: MAPK1 = 0 | MAPK4 = 0 | MAPKAPK2 = 0 | MKNK1 = 0 | NTRK2 = 0 | NTRK3 = 0 | PAK4 = 0 | PBK 0 | PDGFRB 0 | PDK1 = 0

CNc1cc(Nc2cccn(-c3ccccn3)c2=O)nn2c(C(=O)N[C@@H]3C[C@@H]3F)cnc12 (2.5 µM)
inactive: MAPK1 = 0 | MAPK4 = 0 | MAPKAPK2 = 0 | MKNK1 = 0 | NTRK2 = 0 | NTRK3 = 0 | PAK4 = 0 | PBK 0 | PDGFRB 0 | PDK1 = 0

Cc1cc(-c2ccnc(Nc3cnn(C)c3)n2)ccc1CNC(=O)N1CC(OC(C)C)C1 (10 µM)
inactive: MAPK1 = 0 | MAPK4 = 0 | MAPKAPK2 = 0 | MKNK1 = 0 | NTRK2 = 0 | NTRK3 = 0 | PAK4 = 0 | PBK 0 | PDGFRB 0 | PDK1 = 0

COc1cc(N2CCOCC2)ccc1Nc1ncc(Cl)c(Nc2ccccc2NS(C)(=O)=O)n1 (2.5 µM)
inactive: MAPK1 = 0 | MAPK4 = 0 | MAPKAPK2 = 0 | MKNK1 = 0 | NTRK2 = 0 | NTRK3 = 0 | PAK4 = 0 | PBK 0 | PDGFRB 0 | PDK1 = 0

c1cc(NC2CCNCC2)nc(-c2cnc3ccccn23)c1 [IRAK inhibitor 1] (10 µM)
inactive: MAPK1 = 0 | MAPK4 = 0 | MAPKAPK2 = 0 | MKNK1 = 0 | NTRK2 = 0 | NTRK3 = 0 | PAK4 = 0 | PBK 0 | PDGFRB 0 | PDK1 = 0

Nc1c(C(=O)NCc2ccc(C(=O)NCCCC3CCCCC3)cc2)cnn1-c1ccccc1 (2.5 µM)
inactive: MAPK1 = 0 | MAPK4 = 0 | MAPKAPK2 = 0 | MKNK1 = 0 | NTRK2 = 0 | NTRK3 = 0 | PAK4 = 0 | PBK 0 | PDGFRB 0 | PDK1 = 0

O[C@@H]1CO[C@H]2[C@@H]1OC[C@H]2Oc1nc2nc(-c3ccc(-c4ccccc4)cc3)c(Cl)cc2[nH]1 (10 µM)
inactive: MAPK1 = 0 | MAPK4 = 0 | MAPKAPK2 = 0 | MKNK1 = 0 | NTRK2 = 0 | NTRK3 = 0 | PAK4 = 0 | PBK 0 | PDGFRB 0 | PDK1 = 0

O=[N+]([O-])c1ccc(Nc2nc(N3CCOCC3)nc(N3CCOCC3)n2)cc1 (10 µM)
inactive: MAPK1 = 0 | MAPK4 = 0 | MAPKAPK2 = 0 | MKNK1 = 0 | NTRK2 = 0 | NTRK3 = 0 | PAK4 = 0 | PBK 0 | PDGFRB 0 | PDK1 = 0

COc1cc2ncnc(-n3nc(-c4ccccn4)nc3N)c2cc1OC (10 µM)
inactive: MAPK1 = 0 | MAPK4 = 0 | MAPKAPK2 = 0 | MKNK1 = 0 | NTRK2 = 0 | NTRK3 = 0 | PAK4 = 0 | PBK 0 | PDGFRB 0 | PDK1 = 0

CC1(C)Cc2c(sc(NC(=S)NC(=O)c3ccccc3)c2C(=O)O)CO1 (10 µM)
inactive: MAPK1 = 0 | MAPK4 = 0 | MAPKAPK2 = 0 | MKNK1 = 0 | NTRK2 = 0 | NTRK3 = 0 | PAK4 = 0 | PBK 0 | PDGFRB 0 | PDK1 = 0

O=C1NC(=O)/C(=C/c2ccc3nccc(-c4ccncc4)c3c2)S1 (10 µM)
inactive: MAPK1 = 0 | MAPK4 = 0 | MAPKAPK2 = 0 | MKNK1 = 0 | NTRK2 = 0 | NTRK3 = 0 | PAK4 = 0 | PBK 0 | PDGFRB 0 | PDK1 = 0

Oc1ccc(/C=C/c2cc(O)cc(O)c2)cc1 [Resveratrol] (10 µM)
inactive: MAPK1 = 0 | MAPK4 = 0 | MAPKAPK2 = 0 | MKNK1 = 0 | NTRK2 = 0 | NTRK3 = 0 | PAK4 = 0 | PBK 0 | PDGFRB 0 | PDK1 = 0

CC(C)=CC(=O)O[C@H]1Cc2cc3ccc(=O)oc3cc2OC1(C)C [Decursin] (10 µM)
inactive: MAPK1 = 0 | MAPK4 = 0 | MAPKAPK2 = 0 | MKNK1 = 0 | NTRK2 = 0 | NTRK3 = 0 | PAK4 = 0 | PBK 0 | PDGFRB 0 | PDK1 = 0

CN1CCC(c2ccccc2CC(C)(C)Nc2nc(N3CCOCC3)nc(-n3c(C(F)F)nc4ccccc43)n2)CC1 [Zandelisib] (10 µM)
inactive: MAPK1 = 0 | MAPK4 = 0 | MAPKAPK2 = 0 | MKNK1 = 0 | NTRK2 = 0 | NTRK3 = 0 | PAK4 = 0 | PBK 0 | PDGFRB 0 | PDK1 = 0
